Where a chain is given by its changes, count along the chain named. Results are given in words; binding and its absence hold for the method and conditions named. In cells and extracts the contact can be indirect. Binding can be weak; no strength is given. For part of these data: Where a sequence is shown, tags or fusion partners need not be part of it.
How the values were obtained:
Assay in all cases: co-IP; lysates of CHO cells expressing Kv3.3 constructs (25 mM Tris-HCl pH 7.4, 150 mM NaCl, 1% NP-40, 1 mM EDTA, 5% glycerol); primary antibody overnight at 4 °C, protein A/G beads 2 h at 4 °C, six washes; Western blot
[1] = target: T1, wild type Kv3.3 potassium channel (UniProt Q14003)
T1 sequence: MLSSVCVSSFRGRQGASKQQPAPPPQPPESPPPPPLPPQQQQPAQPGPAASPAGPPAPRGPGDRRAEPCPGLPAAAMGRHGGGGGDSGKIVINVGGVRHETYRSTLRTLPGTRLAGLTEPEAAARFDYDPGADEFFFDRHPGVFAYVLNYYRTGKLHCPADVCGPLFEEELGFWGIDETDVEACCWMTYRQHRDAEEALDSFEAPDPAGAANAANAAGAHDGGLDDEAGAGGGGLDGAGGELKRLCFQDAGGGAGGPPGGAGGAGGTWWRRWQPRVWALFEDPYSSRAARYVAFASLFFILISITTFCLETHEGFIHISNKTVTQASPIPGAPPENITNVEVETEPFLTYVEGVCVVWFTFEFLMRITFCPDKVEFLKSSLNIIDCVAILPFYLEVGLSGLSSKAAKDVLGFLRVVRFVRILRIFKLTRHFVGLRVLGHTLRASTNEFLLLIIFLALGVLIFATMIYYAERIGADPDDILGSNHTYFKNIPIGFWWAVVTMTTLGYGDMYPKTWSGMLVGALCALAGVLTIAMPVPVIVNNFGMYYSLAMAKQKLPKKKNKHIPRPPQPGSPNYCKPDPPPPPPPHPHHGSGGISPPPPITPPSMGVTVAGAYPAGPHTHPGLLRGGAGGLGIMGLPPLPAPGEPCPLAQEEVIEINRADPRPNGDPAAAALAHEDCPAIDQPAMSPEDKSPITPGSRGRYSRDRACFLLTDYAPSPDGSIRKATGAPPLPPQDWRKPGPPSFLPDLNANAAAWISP

[2] = target: T2, Kv3.3 full length with C-terminal 6xHis tag (UniProt Q14003)
T2 sequence: T1 sequence

[3] = target: T3, G592R Kv3.3 mutant channel (UniProt Q14003)
T3 sequence: T1 sequence with G592R

Measured: binding

TANK-binding kinase 1 (Chinese hamster (endogenous in CHO)) (enzyme)
binds: [1] | [2] | [3]
